Patent US3971736 (dated 1976)

Test: general procedure: Boc solid-phase peptide synthesis; styrene-2%-divinylbenzene copolymer
Settings: whole synthesis, HBr or TFA salt

| Substance | crude mass (scale 6.3 mmoles) | crude mass (scale 267 μmoles) |
| --- | --- | --- |
| Pyroglu-DPhe-Pro-Phe-Phe-Val-DTrpOCH3 | 4.06 g | – |
| t-Boc-DPhe-Pro-Phe-Phe-Val-DLeuNHNH2 | – | 0.215 g |
